This note sets out measurements from patent US10221227B2 (INDUSTRY FOUNDATION OF CHONNAM NATIONAL UNIVERSITY, priority 2015, dated 2019).

Ends that are not written are not given here.

The nature of this series: general procedure: Fmoc solid-phase peptide synthesis; Chloro trityl chloride resin (CTL resin, Nova Biochem Cat. No. 01-64-0021); HoBt/Bop/DIEA. Conditions: whole synthesis.

“PPRACPTARALCEIR (cysteine pairing not given here)” gave a crude mass of 0.65 g. Under “scale of the general procedure 700 mg resin”, this sequence displayed a crude yield of 93%.
